PubChem BioAssay AID1259405 | NCATS, 2018
Test: 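Mouse-designed siRNAs used to find CHO productivity engineering targets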 (primary screen). System: Chinese hamster CHO-K1 ovary cells with stable secreted eGFP expression. Reagent: single siRNA against mouse genes, 0.8 pmol siRNA per well (2 µl of 400 nM stock). Timing: 3 days. Measured: 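Per-well intracellular GFP measured by laser scanning cytometry, plus viability from ATP luminescence, each relative to plate median of non-targeting control wells, in %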. Direction: GFP, % of control: higher = more GFP per well, higher productivity; viability (ATP), % of control: higher = more viable cells (more ATP). Call rule: 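a knock-down is called active if GFP reaches 120% or more of non-targeting control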.
This is an unselected part of about 50,000 deposited reagents. About 4,000 of all reagents (8%) were called active. 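Mouse siRNA library applied to hamster cells; one well for each siRNA.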 Reagents against one gene are numbered here. No sequences are given here.

gene	reagent	GFP, % of control	viability (ATP), % of control	Call
Anxa13 (annexin A13)	1	89.9	90.6	inactive
Anxa13 (annexin A13)	2	64.8	45.8	inactive
Anxa13 (annexin A13)	3	54.4	64.8	inactive
Dmrt3 (doublesex and mab-3 related transcription factor 3)	1	57.7	71.5	inactive
Dmrt3 (doublesex and mab-3 related transcription factor 3)	2	60	80.9	inactive
Dmrt3 (doublesex and mab-3 related transcription factor 3)	3	73	74.5	inactive
Zfp160 (zinc finger protein 160)	1	58.8	66.4	inactive
Zfp160 (zinc finger protein 160)	2	118	101	inactive
Lonrf2 (LON peptidase N-terminal domain and ring finger 2)	1	74.4	53.2	inactive
Lonrf2 (LON peptidase N-terminal domain and ring finger 2)	2	57.4	52.4	inactive
Lonrf2 (LON peptidase N-terminal domain and ring finger 2)	3	71.2	68.4	inactive
Lhb (luteinizing hormone beta)	1	96.6	65.3	inactive
Lhb (luteinizing hormone beta)	2	152	72.4	active
Lhb (luteinizing hormone beta)	3	73.5	32.2	inactive
Esr1 (estrogen receptor 1 (alpha))	1	76.3	78.3	inactive
Esr1 (estrogen receptor 1 (alpha))	2	73.8	73.8	inactive
Esr1 (estrogen receptor 1 (alpha))	3	10.3	12.3	inactive
Zscan22 (zinc finger and SCAN domain containing 22)	1	79.7	94.5	inactive
Zscan22 (zinc finger and SCAN domain containing 22)	2	92.6	85.9	inactive
Anapc1 (anaphase promoting complex subunit 1)	1	68.7	49.4	inactive
Anapc1 (anaphase promoting complex subunit 1)	2	79.6	71.7	inactive
Anapc1 (anaphase promoting complex subunit 1)	3	89.8	77.1	inactive
Hsf3 (heat shock transcription factor 3)	1	76.8	77.4	inactive
Hsf3 (heat shock transcription factor 3)	2	31	72	inactive
Hsf3 (heat shock transcription factor 3)	3	64.9	81.5	inactive
Slc22a7	1	83.4	84.6	inactive
Slc22a7	2	55.3	47.4	inactive
Slc22a7	3	48.2	65.1	inactive
Ankrd34c (ankyrin repeat domain 34C)	1	206	64	active
Ankrd34c (ankyrin repeat domain 34C)	2	81.3	68.3	inactive
Ankrd34c (ankyrin repeat domain 34C)	3	123	92.7	active
Porcn (porcupine O-acyltransferase)	1	72.2	67.2	inactive
Porcn (porcupine O-acyltransferase)	2	131	79.3	active
Porcn (porcupine O-acyltransferase)	3	83.5	47.7	inactive
Atad2b (ATPase family, AAA domain containing 2B)	1	73.5	56.9	inactive
Atad2b (ATPase family, AAA domain containing 2B)	2	88.9	93.3	inactive
Atad2b (ATPase family, AAA domain containing 2B)	3	69.7	50.8	inactive
Or56b2 (olfactory receptor family 56 subfamily B member 2)	1	83.5	90.1	inactive
Or56b2 (olfactory receptor family 56 subfamily B member 2)	2	47.7	51.3	inactive
Or56b2 (olfactory receptor family 56 subfamily B member 2)	3	53.6	58.7	inactive
Mill2 (MHC I like leukocyte 2)	1	107	115	inactive
Mill2 (MHC I like leukocyte 2)	2	80.4	79	inactive
Rbm41 (RNA binding motif protein 41)	1	70.4	88.1	inactive
Rbm41 (RNA binding motif protein 41)	2	65.2	81.1	inactive
Rbm41 (RNA binding motif protein 41)	3	138	74.8	active

Targets listed so far whose gene name starts with M or m (2):
gene	reagent	GFP, % of control	viability (ATP), % of control	Call
Mill2 (MHC I like leukocyte 2)	1	107	115	inactive
Mill2 (MHC I like leukocyte 2)	2	80.4	79	inactive

The listing continues.
gene	reagent	GFP, % of control	viability (ATP), % of control	Call
BC030500 (cDNA sequence BC030500)	1	61.7	77.6	inactive
BC030500 (cDNA sequence BC030500)	2	64	86.8	inactive
BC030500 (cDNA sequence BC030500)	3	138	157	active
A2ml1 (alpha-2-macroglobulin like 1)	1	45.8	47.7	inactive
A2ml1 (alpha-2-macroglobulin like 1)	2	67.8	69.8	inactive
A2ml1 (alpha-2-macroglobulin like 1)	3	163	137	active
9230109A22Rik (RIKEN cDNA 9230109A22 gene)	1	96.1	98.8	inactive
9230109A22Rik (RIKEN cDNA 9230109A22 gene)	2	61.7	78.5	inactive
9230109A22Rik (RIKEN cDNA 9230109A22 gene)	3	79	106	inactive
Haglr (Hoxd antisense growth associated long non-coding RNA)	1	81.9	68.7	inactive
Haglr (Hoxd antisense growth associated long non-coding RNA)	2	90.4	102	inactive
Haglr (Hoxd antisense growth associated long non-coding RNA)	3	120	140	active
Myt1l (myelin transcription factor 1-like)	1	42.3	56.9	inactive
Myt1l (myelin transcription factor 1-like)	2	72.5	94.6	inactive
Myt1l (myelin transcription factor 1-like)	3	60.5	48.9	inactive
Chdh (choline dehydrogenase)	1	113	76.8	inactive
Chdh (choline dehydrogenase)	2	72	70.7	inactive
Chdh (choline dehydrogenase)	3	65.3	61.9	inactive
Vcf1 (VCP nuclear cofactor family member 1)	1	73.9	90.8	inactive
Vcf1 (VCP nuclear cofactor family member 1)	2	52.7	61.3	inactive
Vcf1 (VCP nuclear cofactor family member 1)	3	83.4	99.9	inactive
Sacm1l (SAC1 suppressor of actin mutations 1-like (yeast))	1	89.8	86.7	inactive
Sacm1l (SAC1 suppressor of actin mutations 1-like (yeast))	2	86	74.2	inactive
Sacm1l (SAC1 suppressor of actin mutations 1-like (yeast))	3	87.2	114	inactive
Dyrk1a	1	142	68.1	active
Plscr2 (phospholipid scramblase 2)	1	55.5	48	inactive
Plscr2 (phospholipid scramblase 2)	2	77	97.8	inactive
Plscr2 (phospholipid scramblase 2)	3	72.3	63.1	inactive
Mmp11 (matrix metallopeptidase 11)	1	111	121	inactive
Mmp11 (matrix metallopeptidase 11)	2	83.2	105	inactive
Amd1 (S-adenosylmethionine decarboxylase 1)	1	117	73.1	inactive
Amd1 (S-adenosylmethionine decarboxylase 1)	2	56.2	72.8	inactive
Amd1 (S-adenosylmethionine decarboxylase 1)	3	74.1	81.6	inactive
Ranbp17 (RAN binding protein 17)	1	100	93.3	inactive
Ranbp17 (RAN binding protein 17)	2	78.5	77.1	inactive
Ranbp17 (RAN binding protein 17)	3	59.1	69.9	inactive
Sptbn2 (spectrin beta, non-erythrocytic 2)	1	73.3	72.6	inactive
Sptbn2 (spectrin beta, non-erythrocytic 2)	2	76.7	76.6	inactive
Sptbn2 (spectrin beta, non-erythrocytic 2)	3	83.2	82.5	inactive
